Values from PubChem BioAssay AID504784 (Drosophila RNAi Screening Center, 2011)
Aim: 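Fly genes whose silencing alters how much lipid cells keep in droplets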 (primary screen). Cell system: Drosophila Kc167 embryonic cells. Reagents: long dsRNA against Drosophila genes, about 250 ng dsRNA per well. Duration: 4 days. Conditions: cells fed 400 µM oleic acid bound to BSA. Read-out: 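Cells imaged and segmented; ratio of lipid droplet area to nuclear area, log-transformed, then normalised as a B-score over the screen; higher means more stored lipid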. Reading the numbers: droplet/nuclear area B-score: higher = more stored lipid (overstorage).
The screen tested about 17,000 reagents; below is a random part of those with a known target gene and a result. 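Each column is one replicate's B-score; the combined score over replicates was not deposited, so single values may mislead.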 A plus sign joins genes that one reagent is predicted to hit. Not all columns of the deposit are shown.

| gene knocked down | amplicon | droplet/nuclear area B-score, replicate 1 |
| --- | --- | --- |
| CG9098 | DRSC03136 | 0.75 |
| CG9098 | DRSC22501 | 1.28 |
| Recs1 | DRSC16545 | 0.636 |
| dpr7 (defective proboscis extension response 7) | DRSC17109 | 0.694 |
| Six4 | DRSC11881 | -1.12 |
| Jon99Fii (Jonah 99Fii) | DRSC15430 | -0.665 |
| CG5447 | DRSC15801 | -0.572 |
| CG13398 | DRSC02268 | 1.57 |
| CG13460 | DRSC10007 | 0.0327 |
| CG31913 | DRSC00892 | 1.28 |
| CadN2 + CG42830 | DRSC03062 | 0.419 |
| CadN2 + CG42830 | DRSC03063 | -0.00197 |
| CadN2 + CG42830 | DRSC03064 | -0.971 |
| CG14253 | DRSC14748 | 0.627 |
| CG14984 | DRSC08442 | 0.102 |
| FMRFaR (FMRFamide Receptor) | DRSC08555 | 0.379 |
| dmrt11E (doublesex-Mab related 11E) | DRSC19715 | 0.761 |
| CG4998 | DRSC10466 | -1.22 |
| CG4998 | DRSC22911 | 0.454 |
| CG11231 (retired record) | DRSC17207 | -2.04 |
| CG9143 | DRSC07338 | 1.21 |
| Shc (SHC-adaptor protein) | DRSC11284 | -0.00404 |
| Fkbp39 (FK506-binding protein 39kD) | DRSC16667 | -0.844 |
| C901 | DRSC19351 | -0.115 |
| Rab30 | DRSC03137 | 0.288 |
| CG10793 | DRSC17760 | 2.8 |
| CG14668 | DRSC12254 | 0.256 |
| CARPA (Carbonic anhydrase-related protein A) | DRSC17905 | 0.125 |
| CARPA (Carbonic anhydrase-related protein A) | DRSC21633 | -0.0276 |
| Pglym78 (Phosphoglyceromutase 78) | DRSC16787 | 0.0162 |
| Ehbp1 (Eps15 homology domain containing protein-binding protein 1) | DRSC06561 | -0.242 |
| SP2353 | DRSC07545 | 0.534 |
| P32 | DRSC06988 | 1.67 |
| Mur29B (Mucin related 29B) | DRSC01018 | 1 |
| Mur29B (Mucin related 29B) | DRSC02376 | 0.204 |
| RPA3 (Replication protein A3) | DRSC19658 | -0.0243 |
| Ilp8 (Insulin-like peptide 8) | DRSC10076 | 1.68 |
| Ir67a (Ionotropic receptor 67a) | DRSC09897 | -1.54 |
| CG5509 | DRSC15822 | 0.3 |
| CG1688 | DRSC05934 | -1.95 |
| CG1688 | DRSC23207 | -1.01 |
| Cdc45 (Cell division cycle 45) | DRSC17747 | 0.763 |
| Cdc45 (Cell division cycle 45) | DRSC18164 | -0.00162 |
| Su(var)2-HP2 | DRSC06204 | 0.171 |
| Tsp42Ej (Tetraspanin 42Ej) | DRSC06113 | -2.47 |
| Hs3st-B (Heparan sulfate 3-O sulfotransferase-B) | DRSC20067 | 2.18 |
| CG32811 | DRSC22649 | -1.05 |
| CG2964 | DRSC00554 | -0.0443 |
| alpha4GT2 (alpha1,4-galactosyltransferase 2) | DRSC15905 | 0.861 |
| CG14420 | DRSC17917 | -1.73 |
| CG2269 | DRSC06833 | -0.533 |
| CG17266 | DRSC04979 | -0.459 |
| CG17266 | DRSC22368 | 0.708 |
| hale (hale-bopp) | DRSC10882 | -0.65 |
| Mst84Db (Male-specific RNA 84Db) | DRSC12542 | -0.115 |
| Mst84Db (Male-specific RNA 84Db) | DRSC12598 | 0.627 |

Records listed so far whose target name starts with S or s:
| gene knocked down | amplicon | droplet/nuclear area B-score, replicate 1 |
| --- | --- | --- |
| Six4 | DRSC11881 | -1.12 |
| Shc (SHC-adaptor protein) | DRSC11284 | -0.00404 |
| SP2353 | DRSC07545 | 0.534 |
| Su(var)2-HP2 | DRSC06204 | 0.171 |
